Laboratory results taken from patent US9840535B2, “Method of recovering peptide and method of detecting peptide” (SYSMEX CORPORATION, priority 2014, dated 2017).
Where two headings read alike, the source gives them in different places.

Tests used:
[1] = tested on: mixture of serum and peptide; experiment: Peptide recovery from diluted human serum with added amino acids; conditions: TMR-ACTH partial peptide, 160° C., without additives = 1
[2] = tested on: complex of peptide and protein in blood; experiment: Peptide recovery from diluted whole blood with added amino acids, hydrothermal treatment, SDS-PAGE (fluorescence imaging, silver staining); conditions: for Purification degree: TMR-ACTH partial peptide, 160° C., without additives = 1; for numerical value of the recovery rate×the purification degree compared to the case of not adding any of the amino acids: concentrations of Table 1, 160° C.
protein in blood = experiment: Comparative Example 1: peptide recovery from serum with basic amino acids; conditions: 5 mM, 2 mM or 0.5 mM; human serum, as Example 4
[3] = tested on: complex of peptide and protein in blood; experiment: Recovery of peptides of various isoelectric points from diluted whole blood with glycine, fluorescence spectrum; conditions: 160° C.; for recovered amount of peptide (recovery rate×purification degree) relative to the amount when not adding amino acids: glycine 1500 mM; for Purification degree: glycine added, 1500 mM, not added = 1
[4] = tested on: complex of peptide and protein in blood; conditions: for Purification degree: whole blood, ACTH partial peptide, 160° C., without additives = 1
[5] = Hydrothermal reaction of lysozyme with glycine, SDS-PAGE band intensity; conditions: lysozyme 10 mg/mL, glycine 1 M, hydrothermal reaction as Example 1
[6] = tested on: mixture of serum and peptide; experiment: Peptide recovery from diluted human serum with asparagine at various heating temperatures; conditions: Asn 150 mM, without amino acid at 160° C. = 1

N[C@@H](CS)C(=O)O [Cysteine, cysteine]
Purification degree ([1]; 20 mM): 1.59
Purification degree ([1]; 50 mM): 1.67
Purification degree ([1]; 100 mM): 1.24
Purification degree ([1]; 500 mM): 0.90

NC(=O)CC[C@H](N)C(=O)O [Gln, L-glutamine]
Purification degree ([2]; 128 mM): 1.28
numerical value of the recovery rate×the purification degree compared to the case of not adding any of the amino acids [2]: increased

O=C(O)[C@@H]1CCCN1 [Pro, L(−)-proline]
Purification degree ([2]; 500 mM): 1.3
numerical value of the recovery rate×the purification degree compared to the case of not adding any of the amino acids [2]: increased

NCCCC[C@H](N)C(=O)O [Lys, L-lysine]
Purification degree ([2]; 500 mM): 0.68
numerical value of the recovery rate×the purification degree compared to the case of not adding any of the amino acids [2]: not observed
aggregation of the protein in blood (protein in blood): did not aggregate
recovery of peptides (protein in blood): could not be recovered

N[C@@H](CO)C(=O)O [Ser, L-serine]
Purification degree ([2]; 500 mM): 1.61
numerical value of the recovery rate×the purification degree compared to the case of not adding any of the amino acids [2]: increased

ACTH partial peptide: partial peptide consisting of 1st to 24th amino acids of ACTH; used labeled with tetramethyl rhodamine (TMR)
recovered amount of peptide (recovery rate×purification degree) relative to the amount when not adding amino acids [3]: 12.2 times
Purification degree [3]: 3.38

N[C@@H](CC(=O)O)C(=O)O [Aspartic acid, aspartic acid]
Purification degree ([1]; 5 mM): 1.98
Purification degree ([1]; 7 mM): 2.47
Purification degree ([1]; 8 mM): 2.27
Purification degree ([1]; 10 mM): 0.73

N[C@@H](Cc1c[nH]c2ccccc12)C(=O)O [Trp, L-tryptophan]
Purification degree ([2]; 50 mM): 1.2
numerical value of the recovery rate×the purification degree compared to the case of not adding any of the amino acids [2]: increased

NCC(=O)O [Gly, glycine]
Purification degree ([2]; 500 mM): 4.72
Purification degree ([2]; 2000 mM): 8.12
numerical value of the recovery rate×the purification degree compared to the case of not adding any of the amino acids [2]: increased
Purification degree ([1]; 500 mM): 2.27
recovered amount of peptide (recovery rate×purification degree) relative to the amount when not adding amino acids ([4]; final concentration of 10 mM): 1.43 times
recovered amount of peptide (recovery rate×purification degree) relative to the amount when not adding amino acids ([4]; final concentration of 100 mM): 5.45 times
recovered amount of peptide (recovery rate×purification degree) relative to the amount when not adding amino acids ([4]; final concentration of 500 mM): 9.12 times
recovered amount of peptide (recovery rate×purification degree) relative to the amount when not adding amino acids ([4]; final concentration of 1500 mM): 24.6 times
Purification degree ([4]; glycine 10 mM): 0.92
Purification degree ([4]; glycine 100 mM): 1.44
Purification degree ([4]; glycine 500 mM): 2.20
Purification degree ([4]; glycine 1500 mM): 5.05

CC(C)[C@H](N)C(=O)O [Val, L-valine]
Purification degree ([2]; 500 mM): 2.05
numerical value of the recovery rate×the purification degree compared to the case of not adding any of the amino acids [2]: increased

BNP: BNP (brain natriuretic peptide) labeled with TMR
recovered amount of peptide (recovery rate×purification degree) relative to the amount when not adding amino acids [3]: 11.0 times
Purification degree [3]: 3.09

CSCCC(N)C(=O)O (racemic) [Met, DL-methionine]
Purification degree ([2]; 255 mM): 2.11
numerical value of the recovery rate×the purification degree compared to the case of not adding any of the amino acids [2]: increased

polyglycine [(Gly)n]
Purification degree ([2]; 0.05% (w/v)): 0.98
numerical value of the recovery rate×the purification degree compared to the case of not adding any of the amino acids [2]: not observed

CC[C@H](C)[C@H](N)C(=O)O [Ile, L-isoleucine]
Purification degree ([2]; 150 mM): 1.36
numerical value of the recovery rate×the purification degree compared to the case of not adding any of the amino acids [2]: increased

N[C@@H](CCC(=O)O)C(=O)O [Glutamic acid, glutamic acid]
Purification degree ([1]; 5 mM): 2.16
Purification degree ([1]; 7 mM): 2.77
Purification degree ([1]; 8 mM): 2.34
Purification degree ([1]; 10 mM): 0.83

CC(C)C[C@H](N)C(=O)O [Leucine, leucine]
Purification degree ([1]; 100 mM): 1.27
Purification degree ([1]; 150 mM): 1.33

N[C@@H](Cc1ccccc1)C(=O)O [Phe, L-phenylalanine]
Purification degree ([2]; 160 mM): 1.41
numerical value of the recovery rate×the purification degree compared to the case of not adding any of the amino acids [2]: increased

lysozyme: hen egg-white lysozyme hydrochloride having 129 residues, about 15 kDa
SDS-PAGE peak at a position of 15 kDa after hydrothermal reaction compared to without hydrothermal treatment [5]: decreased greatly
state of lysozyme after hydrothermal reaction (peaks at 3.5 to 10 kDa and less than 3.5 kDa) [5]: fragmented

NC(=O)C[C@H](N)C(=O)O [Asn, L-asparagine]
Purification degree ([2]; 150 mM): 1.75
numerical value of the recovery rate×the purification degree compared to the case of not adding any of the amino acids [2]: increased
Purification degree ([1]; 150 mM): 2.12
Purification degree ([6]; heating temperature: 130° C.): 2.13
Purification degree ([6]; heating temperature: 140° C.): 2.12
Purification degree ([6]; heating temperature: 150° C.): 2.01
Purification degree ([6]; heating temperature: 160° C.): 2.46

C[C@@H](O)[C@H](N)C(=O)O [Thr, L-threonine]
Purification degree ([2]; 500 mM): 2.46
numerical value of the recovery rate×the purification degree compared to the case of not adding any of the amino acids [2]: increased

NCC(=O)NCC(=O)O [(Gly)2, glycylglycine]
Purification degree ([2]; 500 mM): 1.03
numerical value of the recovery rate×the purification degree compared to the case of not adding any of the amino acids [2]: not observed

C-peptide
recovered amount of peptide (recovery rate×purification degree) relative to the amount when not adding amino acids [3]: 3.95 times
Purification degree [3]: 2.23

N=C(N)NCCC[C@H](N)C(=O)O [Arg, L-arginine]
Purification degree ([2]; 500 mM): 0.86
numerical value of the recovery rate×the purification degree compared to the case of not adding any of the amino acids [2]: not observed
aggregation of the protein in blood (protein in blood): did not aggregate
recovery of peptides (protein in blood): could not be recovered

C[N+](C)(C)CC(=O)[O-] [TMG, trimethylglycine]
Purification degree ([2]; 500 mM): 0.94
numerical value of the recovery rate×the purification degree compared to the case of not adding any of the amino acids [2]: not observed

C[C@H](N)C(=O)O [Ala, L-alanine]
Purification degree ([2]; 500 mM): 2.04
numerical value of the recovery rate×the purification degree compared to the case of not adding any of the amino acids [2]: increased
